Reference: the supplement of paper PMC10849652
This is one part of the list.

Sequences of proteins named here, by UniProt entry; tags and fusion partners are left off. A change or cut given only in a name is not applied to a line headed by its entry.
UniProt O75342: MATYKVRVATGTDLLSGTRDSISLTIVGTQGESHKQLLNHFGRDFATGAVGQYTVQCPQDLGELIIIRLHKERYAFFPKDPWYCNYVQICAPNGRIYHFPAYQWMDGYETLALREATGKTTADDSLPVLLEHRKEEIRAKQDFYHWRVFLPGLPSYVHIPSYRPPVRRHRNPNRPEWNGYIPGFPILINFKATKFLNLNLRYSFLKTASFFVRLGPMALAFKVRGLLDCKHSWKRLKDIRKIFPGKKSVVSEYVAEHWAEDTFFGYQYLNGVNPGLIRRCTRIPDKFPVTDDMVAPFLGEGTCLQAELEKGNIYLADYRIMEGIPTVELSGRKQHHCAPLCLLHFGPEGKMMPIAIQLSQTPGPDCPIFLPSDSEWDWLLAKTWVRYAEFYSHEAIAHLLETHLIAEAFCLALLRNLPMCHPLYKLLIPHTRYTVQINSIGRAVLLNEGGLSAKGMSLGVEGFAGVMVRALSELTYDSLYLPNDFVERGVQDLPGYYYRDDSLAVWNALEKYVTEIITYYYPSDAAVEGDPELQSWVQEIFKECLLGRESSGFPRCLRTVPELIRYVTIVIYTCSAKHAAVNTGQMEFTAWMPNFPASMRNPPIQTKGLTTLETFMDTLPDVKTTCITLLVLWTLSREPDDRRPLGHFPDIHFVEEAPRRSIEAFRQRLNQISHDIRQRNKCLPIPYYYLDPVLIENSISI
UniProt Q9NXW9: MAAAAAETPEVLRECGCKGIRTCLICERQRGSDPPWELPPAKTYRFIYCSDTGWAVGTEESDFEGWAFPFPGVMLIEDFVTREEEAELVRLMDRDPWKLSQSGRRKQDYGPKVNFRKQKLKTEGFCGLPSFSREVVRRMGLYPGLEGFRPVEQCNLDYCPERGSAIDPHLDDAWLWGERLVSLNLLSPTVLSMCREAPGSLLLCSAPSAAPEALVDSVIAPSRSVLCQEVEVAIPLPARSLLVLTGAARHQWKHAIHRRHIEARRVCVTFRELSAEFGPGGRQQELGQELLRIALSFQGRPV
UniProt P13196: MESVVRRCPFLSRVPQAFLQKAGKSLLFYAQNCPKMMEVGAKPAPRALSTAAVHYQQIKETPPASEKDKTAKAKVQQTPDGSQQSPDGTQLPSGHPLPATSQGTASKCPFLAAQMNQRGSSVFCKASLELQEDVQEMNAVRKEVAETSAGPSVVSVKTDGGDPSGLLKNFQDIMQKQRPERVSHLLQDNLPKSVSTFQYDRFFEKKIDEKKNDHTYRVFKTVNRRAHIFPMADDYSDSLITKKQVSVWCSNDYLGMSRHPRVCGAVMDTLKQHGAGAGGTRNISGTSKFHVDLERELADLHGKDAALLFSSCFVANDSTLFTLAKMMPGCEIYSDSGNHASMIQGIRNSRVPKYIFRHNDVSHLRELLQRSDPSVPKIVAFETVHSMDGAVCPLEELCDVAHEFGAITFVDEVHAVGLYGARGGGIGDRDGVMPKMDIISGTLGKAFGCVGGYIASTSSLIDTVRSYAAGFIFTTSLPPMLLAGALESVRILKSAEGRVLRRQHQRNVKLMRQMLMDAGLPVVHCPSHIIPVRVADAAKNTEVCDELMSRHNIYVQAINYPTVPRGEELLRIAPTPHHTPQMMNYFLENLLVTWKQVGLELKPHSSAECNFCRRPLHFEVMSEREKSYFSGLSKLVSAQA
UniProt Q8WV93: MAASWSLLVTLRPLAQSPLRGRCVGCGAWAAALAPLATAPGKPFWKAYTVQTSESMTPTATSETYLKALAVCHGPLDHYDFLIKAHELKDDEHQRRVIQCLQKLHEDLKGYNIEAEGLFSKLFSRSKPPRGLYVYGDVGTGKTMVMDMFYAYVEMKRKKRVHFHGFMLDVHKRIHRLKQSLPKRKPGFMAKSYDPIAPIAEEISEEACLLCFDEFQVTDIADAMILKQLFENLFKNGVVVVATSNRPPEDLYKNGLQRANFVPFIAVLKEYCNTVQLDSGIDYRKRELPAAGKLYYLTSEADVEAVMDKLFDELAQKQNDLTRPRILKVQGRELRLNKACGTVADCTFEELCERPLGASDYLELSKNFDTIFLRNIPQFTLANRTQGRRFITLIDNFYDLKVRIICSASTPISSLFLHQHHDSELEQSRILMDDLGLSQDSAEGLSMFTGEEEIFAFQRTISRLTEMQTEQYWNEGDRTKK
UniProt P51648: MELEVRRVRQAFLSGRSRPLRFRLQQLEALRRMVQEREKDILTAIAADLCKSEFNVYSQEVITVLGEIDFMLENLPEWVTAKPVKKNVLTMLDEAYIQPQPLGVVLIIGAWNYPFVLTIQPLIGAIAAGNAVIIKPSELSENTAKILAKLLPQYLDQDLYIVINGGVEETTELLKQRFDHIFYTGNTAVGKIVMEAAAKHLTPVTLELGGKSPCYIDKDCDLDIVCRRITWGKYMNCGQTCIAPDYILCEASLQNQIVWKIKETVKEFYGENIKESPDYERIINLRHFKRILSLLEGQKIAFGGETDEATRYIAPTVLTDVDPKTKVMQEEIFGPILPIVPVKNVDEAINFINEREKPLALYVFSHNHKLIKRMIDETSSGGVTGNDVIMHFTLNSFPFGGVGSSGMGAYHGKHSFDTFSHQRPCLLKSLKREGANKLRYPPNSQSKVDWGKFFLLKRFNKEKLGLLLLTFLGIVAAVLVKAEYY
UniProt P04075: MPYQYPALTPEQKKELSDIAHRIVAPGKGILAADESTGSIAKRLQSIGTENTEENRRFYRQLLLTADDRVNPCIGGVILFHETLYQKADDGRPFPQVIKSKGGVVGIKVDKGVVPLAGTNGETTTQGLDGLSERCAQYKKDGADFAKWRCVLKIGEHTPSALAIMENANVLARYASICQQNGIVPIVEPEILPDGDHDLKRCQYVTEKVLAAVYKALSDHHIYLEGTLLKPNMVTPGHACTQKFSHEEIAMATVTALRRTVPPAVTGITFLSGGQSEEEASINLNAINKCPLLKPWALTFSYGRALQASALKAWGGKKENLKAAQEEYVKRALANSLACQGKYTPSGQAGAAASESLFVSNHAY
UniProt Q96BT7: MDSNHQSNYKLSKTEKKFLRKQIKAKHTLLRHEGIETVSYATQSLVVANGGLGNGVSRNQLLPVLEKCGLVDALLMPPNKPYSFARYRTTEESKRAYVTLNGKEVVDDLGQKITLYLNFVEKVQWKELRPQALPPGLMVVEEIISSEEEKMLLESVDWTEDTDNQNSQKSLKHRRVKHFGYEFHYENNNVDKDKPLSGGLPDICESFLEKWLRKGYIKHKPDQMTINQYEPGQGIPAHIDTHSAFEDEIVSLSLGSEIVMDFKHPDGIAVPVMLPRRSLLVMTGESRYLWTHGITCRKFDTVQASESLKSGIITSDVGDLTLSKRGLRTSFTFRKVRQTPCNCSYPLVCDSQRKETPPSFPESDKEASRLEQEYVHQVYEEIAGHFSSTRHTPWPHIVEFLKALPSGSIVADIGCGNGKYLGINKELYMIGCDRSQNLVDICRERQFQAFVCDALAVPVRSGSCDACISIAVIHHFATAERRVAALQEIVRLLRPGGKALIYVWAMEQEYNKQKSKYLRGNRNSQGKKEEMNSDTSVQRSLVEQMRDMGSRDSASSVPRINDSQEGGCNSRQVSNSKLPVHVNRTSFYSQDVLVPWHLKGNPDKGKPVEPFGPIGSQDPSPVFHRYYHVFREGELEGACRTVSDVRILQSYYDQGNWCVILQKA
UniProt Q9H8T0: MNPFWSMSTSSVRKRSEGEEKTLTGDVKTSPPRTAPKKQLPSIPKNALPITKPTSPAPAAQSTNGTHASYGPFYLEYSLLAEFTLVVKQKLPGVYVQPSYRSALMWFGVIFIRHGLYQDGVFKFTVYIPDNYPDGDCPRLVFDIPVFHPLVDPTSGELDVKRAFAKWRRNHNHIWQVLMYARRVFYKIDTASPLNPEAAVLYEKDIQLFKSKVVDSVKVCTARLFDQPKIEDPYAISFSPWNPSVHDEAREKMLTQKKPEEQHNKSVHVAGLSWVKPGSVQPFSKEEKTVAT
UniProt P54922: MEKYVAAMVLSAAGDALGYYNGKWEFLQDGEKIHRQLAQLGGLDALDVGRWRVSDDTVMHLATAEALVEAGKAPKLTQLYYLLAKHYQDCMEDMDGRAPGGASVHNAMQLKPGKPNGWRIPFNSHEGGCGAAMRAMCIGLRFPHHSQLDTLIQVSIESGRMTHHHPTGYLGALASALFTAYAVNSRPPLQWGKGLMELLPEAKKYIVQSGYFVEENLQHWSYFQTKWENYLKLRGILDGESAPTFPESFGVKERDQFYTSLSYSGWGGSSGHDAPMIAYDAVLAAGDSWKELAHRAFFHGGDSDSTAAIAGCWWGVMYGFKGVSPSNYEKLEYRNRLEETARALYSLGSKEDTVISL
UniProt Q86V24: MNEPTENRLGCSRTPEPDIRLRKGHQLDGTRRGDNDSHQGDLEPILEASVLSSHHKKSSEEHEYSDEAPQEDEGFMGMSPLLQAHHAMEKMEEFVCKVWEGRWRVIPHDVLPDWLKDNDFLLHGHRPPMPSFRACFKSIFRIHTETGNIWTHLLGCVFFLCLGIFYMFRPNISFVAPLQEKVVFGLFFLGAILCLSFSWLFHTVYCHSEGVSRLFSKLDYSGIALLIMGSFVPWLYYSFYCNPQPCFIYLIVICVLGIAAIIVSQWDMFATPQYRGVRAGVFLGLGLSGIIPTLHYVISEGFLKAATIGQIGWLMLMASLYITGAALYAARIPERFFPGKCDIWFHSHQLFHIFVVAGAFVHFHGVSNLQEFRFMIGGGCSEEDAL
UniProt P51857: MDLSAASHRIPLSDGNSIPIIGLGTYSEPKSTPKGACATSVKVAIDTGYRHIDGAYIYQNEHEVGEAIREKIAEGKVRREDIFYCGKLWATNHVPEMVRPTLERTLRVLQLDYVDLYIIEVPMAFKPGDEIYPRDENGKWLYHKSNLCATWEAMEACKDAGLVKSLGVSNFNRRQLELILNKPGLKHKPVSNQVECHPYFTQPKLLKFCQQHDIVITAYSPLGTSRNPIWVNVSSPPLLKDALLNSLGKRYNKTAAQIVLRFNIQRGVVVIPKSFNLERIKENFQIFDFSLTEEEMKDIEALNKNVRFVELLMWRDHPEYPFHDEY
UniProt Q96A54: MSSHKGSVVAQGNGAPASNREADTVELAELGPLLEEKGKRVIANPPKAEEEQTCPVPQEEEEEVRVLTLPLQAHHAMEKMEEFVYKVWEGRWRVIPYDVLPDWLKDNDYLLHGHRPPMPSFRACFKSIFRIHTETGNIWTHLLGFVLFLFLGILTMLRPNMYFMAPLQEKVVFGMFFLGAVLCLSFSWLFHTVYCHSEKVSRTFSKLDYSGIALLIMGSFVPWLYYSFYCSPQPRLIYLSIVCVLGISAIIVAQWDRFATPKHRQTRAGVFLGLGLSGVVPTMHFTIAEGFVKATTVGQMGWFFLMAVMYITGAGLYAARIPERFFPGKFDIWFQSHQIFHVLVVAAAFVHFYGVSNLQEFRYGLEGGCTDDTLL

Columns and labels:
Experiment in all cases: log2 fold change, soluble protein after heating vs DMSO (PISA); higher = thermal stabilisation; K562 cells, 10 uM, 30 min; active = over 0.2 and 3.5 SD of the protein, either way, in both replicates (recomputed)
[1] = compound: Cc1ccc(NC(=O)c2ccc(CN3CC[C@H](N(C)C)C3)c(C(F)(F)F)c2)cc1Nc1nccc(-c2cncnc2)n1 [bafetinib]
How it was run: (§1)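 For each measurement, 10 μM compound was applied for 30 min to K562 cells at 2×10^6 cells/mL. Aliquots were heated for 3 min across 48°C-58°C, pooled, and extracted in PBS with 0.5% NP-40 at 4°C; the supernatant after 21,000xg for 90 min was soluble protein. This was quantified by TMTpro 16plex LC-MS/MS with channel sums equalised, and thermal stability was reported relative to control samples from duplicates, on a log2 fold-change scale.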

[2] = compound: Cc1cccc(CC(=O)N2CCc3c2ccc(-c2cn(C)c4ncnc(N)c24)c3F)n1
How it was run: as §1

[3] = compound: Cc1cn(-c2cc(NC(=O)c3ccc(C)c(Nc4nccc(-c5cccnc5)n4)c3)cc(C(F)(F)F)c2)cn1 [nilotinib]
How it was run: as §1

[4] = compound: Cc1nc(Nc2n[nH]c3c2CN(C(=O)N[C@H](CN(C)C)c2ccccc2)C3(C)C)c2sccc2n1
How it was run: as §1

[5] = compound: Cc1nc(Nc2ncc(C(=O)Nc3c(C)cccc3Cl)s2)cc(N2CCN(CCO)CC2)n1 [dasatinib]
How it was run: as §1

[6] = compound: Cc1ncc(-c2ccnc(Nc3ccc(S(C)(=O)=O)cc3)n2)n1C(C)C
How it was run: as §1

[7] = compound: Cn1cc(-c2ccc3c(c2)CCN3C(=O)Cc2cccc(C(F)(F)F)c2)c2c(N)ncnc21
How it was run: as §1

[8] = compound: Cn1cc(-c2ccc3nnc(C(F)(F)c4ccc5ncccc5c4)n3n2)cn1
How it was run: as §1

[9] = compound: FC(F)(F)c1ccc(/C=C/c2nc(COc3ccc(CCCCn4ccnn4)cc3)co2)cc1 [mubritinib]
How it was run: as §1

[10] = compound: NC(=O)Nc1cc(-c2cccc(F)c2)sc1C(=O)N[C@H]1CCCNC1
How it was run: as §1

[11] = compound: NC(=O)c1cnc(N[C@@H]2CCCC[C@@H]2N)nc1Nc1cccc(-n2nccn2)c1
How it was run: as §1

[12] = compound: NC1(c2ccc(-c3nc4ccn5c(=O)[nH]nc5c4cc3-c3ccccc3)cc2)CCC1
How it was run: as §1

[13] = compound: NCC(=O)Nc1ccc(-n2nc(C(F)(F)F)cc2-c2ccc3c(ccc4ccccc43)c2)cc1
How it was run: as §1

[14] = compound: Nc1ccccc1NC(=O)c1ccc(CNC(=O)OCc2cccnc2)cc1 [entinostat]
How it was run: as §1

[15] = compound: O=C(CCCCCCC(=O)Nc1ccccc1)NO [vorinostat]
How it was run: as §1

[16] = compound: O=C(CCCCCCNC(=O)c1cnc(N(c2ccccc2)c2ccccc2Cl)nc1)NO [citarinostat]
How it was run: as §1

[17] = compound: O=C(O)c1ccc2c(c1)nc(Nc1cccc(Cl)c1)c1ccncc12 [silmitasertib]
How it was run: as §1

[18] = compound: O=C1NC(=O)C(c2cnc3ccccn23)=C1c1cn2c3c(cc(F)cc13)CN(C(=O)N1CCCCC1)CC2
How it was run: as §1

[19] = compound: c1cc(OCCN2CCCCC2)cc(-c2n[nH]c3ccc(-c4nnc[nH]4)cc23)c1
How it was run: as §1

[20] = compound: Cn1cncc1[C@@](N)(c1ccc(Cl)cc1)c1ccc2c(c1)c(-c1cccc(Cl)c1)cc(=O)n2C [tipifarnib]
How it was run: as §1

Measured: log2 fold change

AHCTF1 isoform 2 (UniProt Q8WYP5)
inactive: [1] -0.075 | [2] 0.048 | [3] -0.376 | [4] 0.021 | [5] -0.024 | [6] -0.261 | [7] -0.459 | [8] -0.004 | [9] 0.016 | [10] -0.094 | [11] 0.017 | [12] 0.01 | [13] 0.044 | [14] -0.01 | [15] 0.072 | [16] 0.128 | [17] -0.121 | [18] -0.01 | [19] -0.069

ALOX12B (UniProt O75342)
inactive: [1] 0.112 | [5] -0.751 | [8] 0.729 | [20] 0.5 | [9] -0.081 | [10] -0.043 | [11] 0.177 | [12] 0.036 | [13] -0.318 | [14] -0.065 | [16] 0 | [17] 0.014 | [19] 0.13

ALKBH4 (UniProt Q9NXW9)
inactive: [1] 0.038 | [2] 0.087 | [5] 0 | [7] -0.022 | [8] 0.017 | [20] -0.001 | [9] -0.122 | [10] -0.009 | [11] -0.051 | [13] 0.097 | [14] -0.058 | [15] -0.031 | [16] 0.079 | [17] 0.165 | [18] 0 | [19] -0.014
active: [12] -0.427

AMN1 (UniProt Q8IY45)
inactive: [1] -0.112 | [2] -0.075 | [3] -0.006 | [4] -0.041 | [5] -0.082 | [6] 0.048 | [7] 0.008 | [20] -0.003 | [9] 0.047 | [10] 0.038 | [11] 0.021 | [12] -0.082 | [13] 0.219 | [14] -0.185 | [15] 0.204 | [16] 0.066 | [17] 0.177 | [18] -0.032 | [19] 0.131

ALAS1 (UniProt P13196)
inactive: [1] 0.051 | [2] -0.084 | [20] 0.026 | [9] 0.001 | [10] -0.244 | [11] -0.024 | [12] -0.062 | [14] -0.226 | [15] -0.123 | [16] 0.041 | [17] -0.062 | [18] -0.15 | [19] 0.085

Retrieved one by one from the entries so far, 2 records:
ALAS1 (UniProt P13196)
inactive: [1] 0.051 | [2] -0.084 | [20] 0.026 | [9] 0.001 | [10] -0.244 | [11] -0.024 | [12] -0.062 | [14] -0.226 | [15] -0.123 | [16] 0.041 | [17] -0.062 | [18] -0.15 | [19] 0.085

ALKBH4 (UniProt Q9NXW9)
inactive: [1] 0.038 | [2] 0.087 | [5] 0 | [7] -0.022 | [8] 0.017 | [20] -0.001 | [9] -0.122 | [10] -0.009 | [11] -0.051 | [13] 0.097 | [14] -0.058 | [15] -0.031 | [16] 0.079 | [17] 0.165 | [18] 0 | [19] -0.014
active: [12] -0.427

Following part:

AFG1L (UniProt Q8WV93)
inactive: [1] -0.041 | [3] -0.061 | [4] -0.048 | [5] -0.023 | [6] 0.043 | [7] 0.077 | [8] 0.109 | [20] 0.19 | [9] 0.031 | [10] -0.021 | [11] 0.008 | [12] 0.019 | [13] -0.178 | [14] 0.095 | [16] -0.004 | [17] 0.009 | [18] -0.009 | [19] -0.057

ALDH3A2 isoform 2 (UniProt P51648)
inactive: [1] -0.293 | [5] -0.42 | [13] -0.012

ALDOA (UniProt P04075)
inactive: [1] 0.048 | [2] -0.137 | [3] 0.108 | [4] -0.014 | [5] 0.287 | [6] -0.001 | [8] -0.079 | [20] 0.078 | [9] 0.002 | [10] 0.073 | [11] 0.072 | [12] 0.089 | [13] 0.07 | [14] -0.084 | [15] -0.079 | [16] -0.051 | [17] -0.02 | [19] -0.072

ALKBH8 isoform 4 (UniProt Q96BT7)
inactive: [1] 0.05 | [2] 0.057 | [5] -0.059 | [7] 0.198 | [9] -0.048 | [10] -0.025 | [12] -0.054 | [14] 0.084 | [15] -0.083 | [16] 0.039 | [17] 0.055 | [18] 0.05 | [19] -0.131

AKTIP isoform 2 (UniProt Q9H8T0)
inactive: [1] 0.206 | [20] -0.062 | [9] 0.054 | [10] -0.07 | [12] -0.197 | [14] -0.011 | [16] 0.035 | [17] 0.094 | [18] -0.054 | [19] 0.059

ADPRH (UniProt P54922)
inactive: [1] 0.082 | [2] -0.29 | [3] 0.141 | [4] 0.026 | [6] -0.161 | [8] 0.038 | [20] -0.005 | [9] 0.015 | [10] 0.015 | [12] -0.178 | [14] -0.034 | [15] -0.039 | [17] 0.086 | [18] -0.104
active: [13] -0.623

ADIPOR2 (UniProt Q86V24)
inactive: [1] 0.084 | [2] 0.037 | [5] 0.046 | [7] 0.064 | [20] 0.142 | [11] -0.048 | [13] -0.026 | [15] -0.141

AKR1D1 (UniProt P51857)
inactive: [1] 0.03 | [2] -0.042 | [5] 0.018 | [7] -0.04 | [20] 0.392 | [11] 0.06 | [13] -0.038 | [15] 0.041

ADIPOR1 (UniProt Q96A54)
inactive: [1] -0.089 | [3] -0.057 | [4] 0.065 | [5] -0.077 | [6] 0.003 | [8] 0 | [20] -0.051 | [9] 0.1 | [10] -0.093 | [12] -0.024 | [13] -0.114 | [14] 0.013 | [16] -0.172 | [17] 0.067 | [18] 0.041 | [19] 0.266
